{"source": "PubChem BioAssay AID504774 (Drosophila RNAi Screening Center, 2011)", "assay": "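Genes required for cells to withstand methyl methanesulphonate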 (primary screen)", "cells": "Drosophila Kc167 cells", "knock-down reagent": "long dsRNA against Drosophila genes, about 0.25 µg dsRNA per well", "duration": "about 6 days: 3 days knock-down, then 3 days with or without MMS", "conditions": "methyl methanesulphonate 0.004% (w/v) for 3 days after knock-down", "measurement": "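ATP-dependent luminescence as a measure of live cells in MMS-exposed wells, quantile normalised within each plate, with replicate values also given as a mean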", "direction": "mean viability with MMS: higher = more surviving cells after MMS", "note": "The deposit covers about 23,000 reagents; below is a random part of those that have a named target and a result. 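Values are quantile-normalised luminescence on an arbitrary scale; higher means more cells surviving MMS.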 Names joined by + are all predicted targets of the reagent. Not all columns of the deposit are shown."}
{"gene knocked down": "CG15147", "dsRNA": "DRSC02447", "mean viability with MMS": 3.54e6}
{"gene knocked down": "CG15147", "dsRNA": "DRSC02448", "mean viability with MMS": 3.48e6}
{"gene knocked down": "CG9168", "dsRNA": "DRSC08633", "mean viability with MMS": 3.56e6}
{"gene knocked down": "Sik3", "dsRNA": "DRSC06505", "mean viability with MMS": 3.61e6}
{"gene knocked down": "Sik3", "dsRNA": "DRSC06771", "mean viability with MMS": 3.44e6}
{"gene knocked down": "CG9014", "dsRNA": "DRSC01979", "mean viability with MMS": 3.60e6}
{"gene knocked down": "CG7632", "dsRNA": "DRSC11842", "mean viability with MMS": 3.60e6}
{"gene knocked down": "dob", "dsRNA": "DRSC19948", "mean viability with MMS": 3.76e6}
{"gene knocked down": "Gr63a", "dsRNA": "DRSC08438", "mean viability with MMS": 3.57e6}
{"gene knocked down": "Xport-A + Xport-B", "dsRNA": "DRSC15586", "mean viability with MMS": 3.62e6}
{"gene knocked down": "CG34007", "dsRNA": "DRSC01790", "mean viability with MMS": 3.58e6}
{"gene knocked down": "AMPdeam", "dsRNA": "DRSC18996", "mean viability with MMS": 3.68e6}
{"gene knocked down": "AMPdeam", "dsRNA": "DRSC19366", "mean viability with MMS": 3.79e6}
{"gene knocked down": "AMPdeam", "dsRNA": "DRSC19368", "mean viability with MMS": 3.68e6}
{"gene knocked down": "AMPdeam", "dsRNA": "DRSC19727", "mean viability with MMS": 3.53e6}
{"gene knocked down": "Klp54D", "dsRNA": "DRSC07450", "mean viability with MMS": 3.48e6}
{"gene knocked down": "Desat1", "dsRNA": "DRSC16668", "mean viability with MMS": 3.33e6}
{"gene knocked down": "CG45105", "dsRNA": "DRSC15002", "mean viability with MMS": 3.25e6}
{"gene knocked down": "CG45105", "dsRNA": "DRSC15833", "mean viability with MMS": 3.26e6}
{"gene knocked down": "CG30393", "dsRNA": "DRSC04253", "mean viability with MMS": 3.51e6}
{"gene knocked down": "eIF4E7", "dsRNA": "DRSC17782", "mean viability with MMS": 3.67e6}
{"gene knocked down": "eIF4E7", "dsRNA": "DRSC18623", "mean viability with MMS": 3.43e6}
{"gene knocked down": "CG9578", "dsRNA": "DRSC20694", "mean viability with MMS": 3.55e6}
{"gene knocked down": "Mur11Da", "dsRNA": "DRSC18960", "mean viability with MMS": 3.40e6}
{"gene knocked down": "mRpL47", "dsRNA": "DRSC16827", "mean viability with MMS": 3.81e6}
{"gene knocked down": "Sirt4", "dsRNA": "DRSC18290", "mean viability with MMS": 3.65e6}
{"gene knocked down": "retm", "dsRNA": "DRSC03252", "mean viability with MMS": 3.64e6}
{"gene knocked down": "CR31032", "dsRNA": "DRSC22457", "mean viability with MMS": 3.74e6}
{"gene knocked down": "CG3225", "dsRNA": "DRSC00578", "mean viability with MMS": 3.52e6}

Quoted from the entries so far (7 entries):
{"gene knocked down": "CG9014", "dsRNA": "DRSC01979", "mean viability with MMS": 3.60e6}
{"gene knocked down": "CG7632", "dsRNA": "DRSC11842", "mean viability with MMS": 3.60e6}
{"gene knocked down": "dob", "dsRNA": "DRSC19948", "mean viability with MMS": 3.76e6}
{"gene knocked down": "Gr63a", "dsRNA": "DRSC08438", "mean viability with MMS": 3.57e6}
{"gene knocked down": "Xport-A + Xport-B", "dsRNA": "DRSC15586", "mean viability with MMS": 3.62e6}
{"gene knocked down": "CG34007", "dsRNA": "DRSC01790", "mean viability with MMS": 3.58e6}
{"gene knocked down": "AMPdeam", "dsRNA": "DRSC18996", "mean viability with MMS": 3.68e6}

The list goes on:
{"gene knocked down": "CG15366 (retired record)", "dsRNA": "DRSC18039", "mean viability with MMS": 3.54e6}
{"gene knocked down": "Hacd2", "dsRNA": "DRSC03181", "mean viability with MMS": 3.54e6}
{"gene knocked down": "Gr59f", "dsRNA": "DRSC04499", "mean viability with MMS": 3.65e6}
{"gene knocked down": "CG10348", "dsRNA": "DRSC02043", "mean viability with MMS": 3.69e6}
{"gene knocked down": "CG10348", "dsRNA": "DRSC21908", "mean viability with MMS": 3.51e6}
{"gene knocked down": "CG10348", "dsRNA": "DRSC23233", "mean viability with MMS": 3.58e6}
{"gene knocked down": "enc", "dsRNA": "DRSC08716", "mean viability with MMS": 3.45e6}
{"gene knocked down": "CG13075", "dsRNA": "DRSC09958", "mean viability with MMS": 3.67e6}
{"gene knocked down": "imd", "dsRNA": "DRSC05928", "mean viability with MMS": 3.47e6}
{"gene knocked down": "CG2993", "dsRNA": "DRSC14284", "mean viability with MMS": 3.54e6}
{"gene knocked down": "CG2993", "dsRNA": "DRSC15457", "mean viability with MMS": 3.39e6}
{"gene knocked down": "LKRSDH", "dsRNA": "DRSC03015", "mean viability with MMS": 3.53e6}
{"gene knocked down": "CG15412", "dsRNA": "DRSC00427", "mean viability with MMS": 3.48e6}
{"gene knocked down": "scyl", "dsRNA": "DRSC11392", "mean viability with MMS": 3.90e6}
{"gene knocked down": "antr", "dsRNA": "DRSC22392", "mean viability with MMS": 3.37e6}
{"gene knocked down": "5-HT1A", "dsRNA": "DRSC05030", "mean viability with MMS": 3.42e6}
